Measured values: the supplement of paper PMC10849652
The list shows a part of the results.

Sequences of proteins named here, by UniProt entry; tags and fusion partners are left off. A change or cut given only in a name is not applied to a line headed by its entry.
UniProt Q9HC35: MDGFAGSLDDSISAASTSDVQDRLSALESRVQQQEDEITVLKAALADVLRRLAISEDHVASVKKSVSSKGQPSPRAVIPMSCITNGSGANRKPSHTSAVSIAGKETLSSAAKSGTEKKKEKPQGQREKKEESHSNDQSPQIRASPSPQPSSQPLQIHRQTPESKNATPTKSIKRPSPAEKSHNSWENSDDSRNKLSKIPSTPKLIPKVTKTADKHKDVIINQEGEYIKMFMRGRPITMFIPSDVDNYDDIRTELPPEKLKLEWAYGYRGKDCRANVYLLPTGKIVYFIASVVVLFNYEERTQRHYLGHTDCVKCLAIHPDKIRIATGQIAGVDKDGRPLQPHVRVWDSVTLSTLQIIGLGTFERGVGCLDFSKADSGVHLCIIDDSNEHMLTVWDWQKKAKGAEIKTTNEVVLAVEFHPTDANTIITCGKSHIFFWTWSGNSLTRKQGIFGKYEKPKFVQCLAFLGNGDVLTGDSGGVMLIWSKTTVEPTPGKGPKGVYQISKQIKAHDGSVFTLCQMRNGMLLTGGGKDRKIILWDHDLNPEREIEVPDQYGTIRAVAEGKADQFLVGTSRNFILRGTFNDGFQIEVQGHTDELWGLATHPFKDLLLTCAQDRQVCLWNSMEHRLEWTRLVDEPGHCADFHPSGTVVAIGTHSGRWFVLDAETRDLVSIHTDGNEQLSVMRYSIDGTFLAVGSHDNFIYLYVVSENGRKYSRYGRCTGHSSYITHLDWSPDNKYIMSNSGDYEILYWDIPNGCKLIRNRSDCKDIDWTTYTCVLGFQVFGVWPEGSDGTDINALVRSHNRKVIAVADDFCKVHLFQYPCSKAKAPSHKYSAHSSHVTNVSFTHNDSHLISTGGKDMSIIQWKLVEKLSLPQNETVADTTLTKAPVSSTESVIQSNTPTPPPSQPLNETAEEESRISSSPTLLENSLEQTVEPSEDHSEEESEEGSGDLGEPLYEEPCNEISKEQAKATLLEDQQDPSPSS
UniProt Q14232, whole entry, looked up: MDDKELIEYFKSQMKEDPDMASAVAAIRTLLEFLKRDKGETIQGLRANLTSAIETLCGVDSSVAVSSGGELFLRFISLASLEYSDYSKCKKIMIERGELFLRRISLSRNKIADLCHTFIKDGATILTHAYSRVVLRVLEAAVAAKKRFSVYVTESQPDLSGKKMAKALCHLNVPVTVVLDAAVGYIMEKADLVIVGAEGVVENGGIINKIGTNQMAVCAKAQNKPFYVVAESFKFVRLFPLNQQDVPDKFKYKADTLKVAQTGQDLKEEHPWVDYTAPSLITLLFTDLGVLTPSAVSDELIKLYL
UniProt P23588, whole entry, looked up: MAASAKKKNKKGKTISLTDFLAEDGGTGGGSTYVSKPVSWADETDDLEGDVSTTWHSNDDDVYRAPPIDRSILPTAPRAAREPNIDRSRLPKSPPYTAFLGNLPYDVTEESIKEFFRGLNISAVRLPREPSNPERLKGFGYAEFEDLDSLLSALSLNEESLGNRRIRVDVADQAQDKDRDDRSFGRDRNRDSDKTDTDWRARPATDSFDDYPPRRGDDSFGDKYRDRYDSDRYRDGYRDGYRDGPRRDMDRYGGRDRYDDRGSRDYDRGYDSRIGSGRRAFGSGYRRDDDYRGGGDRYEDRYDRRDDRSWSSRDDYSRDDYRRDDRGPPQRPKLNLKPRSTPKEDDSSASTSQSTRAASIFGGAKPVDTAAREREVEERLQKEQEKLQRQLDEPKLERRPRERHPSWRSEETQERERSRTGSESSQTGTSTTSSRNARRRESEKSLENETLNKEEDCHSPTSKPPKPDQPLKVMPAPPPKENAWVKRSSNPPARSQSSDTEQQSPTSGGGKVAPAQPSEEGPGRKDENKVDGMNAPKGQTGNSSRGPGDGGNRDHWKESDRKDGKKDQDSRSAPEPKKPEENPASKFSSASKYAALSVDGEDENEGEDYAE
UniProt P50402: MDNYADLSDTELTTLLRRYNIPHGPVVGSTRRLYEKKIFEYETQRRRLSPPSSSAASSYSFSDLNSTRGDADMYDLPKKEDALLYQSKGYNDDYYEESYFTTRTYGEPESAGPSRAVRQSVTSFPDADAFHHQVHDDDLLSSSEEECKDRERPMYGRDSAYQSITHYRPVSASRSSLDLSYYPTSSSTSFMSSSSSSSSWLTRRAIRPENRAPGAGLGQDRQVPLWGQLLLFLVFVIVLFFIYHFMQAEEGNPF
UniProt Q13216, whole entry, looked up: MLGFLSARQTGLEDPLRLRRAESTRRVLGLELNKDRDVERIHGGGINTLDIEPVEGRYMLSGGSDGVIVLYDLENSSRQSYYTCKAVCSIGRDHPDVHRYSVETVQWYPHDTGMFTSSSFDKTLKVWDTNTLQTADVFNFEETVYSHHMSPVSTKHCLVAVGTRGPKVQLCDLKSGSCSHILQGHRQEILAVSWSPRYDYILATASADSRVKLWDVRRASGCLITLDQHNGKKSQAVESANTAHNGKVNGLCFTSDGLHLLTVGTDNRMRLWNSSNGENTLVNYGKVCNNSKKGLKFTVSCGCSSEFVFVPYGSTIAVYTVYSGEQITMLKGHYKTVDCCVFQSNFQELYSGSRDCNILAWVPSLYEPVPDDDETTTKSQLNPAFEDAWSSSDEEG
UniProt Q7L775: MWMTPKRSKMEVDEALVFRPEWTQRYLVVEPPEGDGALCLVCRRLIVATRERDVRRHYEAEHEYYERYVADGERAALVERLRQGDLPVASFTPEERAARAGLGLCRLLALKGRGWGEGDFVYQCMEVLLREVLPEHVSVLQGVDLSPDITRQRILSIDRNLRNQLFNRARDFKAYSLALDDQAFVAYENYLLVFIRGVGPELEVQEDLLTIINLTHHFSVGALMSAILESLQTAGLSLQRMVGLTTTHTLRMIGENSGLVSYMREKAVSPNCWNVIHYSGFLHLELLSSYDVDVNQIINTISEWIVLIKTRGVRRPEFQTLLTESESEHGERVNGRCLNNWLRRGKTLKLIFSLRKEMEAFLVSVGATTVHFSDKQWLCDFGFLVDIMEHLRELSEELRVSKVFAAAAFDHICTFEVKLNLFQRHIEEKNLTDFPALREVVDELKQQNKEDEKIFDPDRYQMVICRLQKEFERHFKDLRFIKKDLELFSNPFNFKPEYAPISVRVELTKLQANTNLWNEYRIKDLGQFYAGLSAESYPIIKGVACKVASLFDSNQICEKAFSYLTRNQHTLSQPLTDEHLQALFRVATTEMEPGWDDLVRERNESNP
UniProt Q9UI10, whole entry, looked up: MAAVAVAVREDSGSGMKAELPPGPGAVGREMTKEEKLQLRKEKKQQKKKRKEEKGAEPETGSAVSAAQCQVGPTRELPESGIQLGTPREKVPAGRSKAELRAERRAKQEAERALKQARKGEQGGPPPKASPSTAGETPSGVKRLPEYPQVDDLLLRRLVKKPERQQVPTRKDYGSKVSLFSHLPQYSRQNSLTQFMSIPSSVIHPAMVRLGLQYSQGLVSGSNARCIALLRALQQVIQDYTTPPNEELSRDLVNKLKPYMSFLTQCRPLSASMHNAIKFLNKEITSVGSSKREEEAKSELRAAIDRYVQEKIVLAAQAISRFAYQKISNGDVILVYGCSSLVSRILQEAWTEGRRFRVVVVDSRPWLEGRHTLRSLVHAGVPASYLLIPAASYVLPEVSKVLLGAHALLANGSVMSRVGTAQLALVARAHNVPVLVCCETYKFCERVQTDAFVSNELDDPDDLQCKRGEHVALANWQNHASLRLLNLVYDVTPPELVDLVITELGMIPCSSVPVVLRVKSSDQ
UniProt Q13542: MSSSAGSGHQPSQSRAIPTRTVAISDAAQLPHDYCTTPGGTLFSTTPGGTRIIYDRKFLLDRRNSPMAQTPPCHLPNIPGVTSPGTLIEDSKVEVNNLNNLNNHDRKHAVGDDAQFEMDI
UniProt O75354: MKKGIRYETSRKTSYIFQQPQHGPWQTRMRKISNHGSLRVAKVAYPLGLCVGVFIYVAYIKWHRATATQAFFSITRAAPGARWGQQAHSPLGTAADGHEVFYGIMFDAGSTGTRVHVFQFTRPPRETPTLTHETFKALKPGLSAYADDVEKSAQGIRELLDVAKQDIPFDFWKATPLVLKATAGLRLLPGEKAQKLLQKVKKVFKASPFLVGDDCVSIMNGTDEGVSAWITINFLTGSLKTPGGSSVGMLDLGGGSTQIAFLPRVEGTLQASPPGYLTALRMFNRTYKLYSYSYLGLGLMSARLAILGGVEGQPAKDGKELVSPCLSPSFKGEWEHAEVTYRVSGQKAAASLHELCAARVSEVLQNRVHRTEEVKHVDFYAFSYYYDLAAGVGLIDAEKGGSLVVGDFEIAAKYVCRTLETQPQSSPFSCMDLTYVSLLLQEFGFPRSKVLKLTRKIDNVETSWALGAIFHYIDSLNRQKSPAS

Legend:
Assay in all cases: log2 fold change, soluble protein after heating vs DMSO (PISA); higher = thermal stabilisation; K562 lysate, 10 uM; active = over 0.2 and 3.5 SD of the protein, either way, in both replicates (recomputed)
lapatinib = compound: CS(=O)(=O)CCNCc1ccc(-c2ccc3ncnc(Nc4ccc(OCc5cccc(F)c5)c(Cl)c4)c3c2)o1 [lapatinib]
Method in brief: (§1)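 Log-two fold change in thermal stability relative to solvent controls is reported from duplicates. For each sample, crude K562 extract from dounce-homogenised pellets in PBS pH 7.4 with 1 mM MgCl2, at 1 mg/mL protein, was treated with 10 μM compound for 30 min. Aliquots heated for 3 min across 48°C-58°C were pooled, brought to 0.5% NP-40 at 4°C and cleared at 21,000xg for 90 min. The supernatant was quantified by TMTpro 16plex LC-MS/MS with channel sums equalised.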

pictilisib = compound: CS(=O)(=O)N1CCN(Cc2cc3nc(-c4cccc5[nH]ncc45)nc(N4CCOCC4)c3s2)CC1 [pictilisib]
Method in brief: as §1

[1] = compound: C[C@H](C1=CC=C(C=C1)C(=O)NC2=C3C=CNC3=NC=C2)N
Method in brief: as §1

duvelisib = compound: C[C@H](Nc1ncnc2nc[nH]c12)c1cc2cccc(Cl)c2c(=O)n1-c1ccccc1 [duvelisib]
Method in brief: as §1

gandotinib = compound: Cc1cc(Nc2cc(CN3CCOCC3)c3nc(C)c(Cc4ccc(Cl)cc4F)n3n2)n[nH]1 [gandotinib]
Method in brief: as §1

tozasertib = compound: Cc1cc(Nc2cc(N3CCN(C)CC3)nc(Sc3ccc(NC(=O)C4CC4)cc3)n2)n[nH]1 [tozasertib]
Method in brief: as §1

doramapimod = compound: Cc1ccc(-n2nc(C(C)(C)C)cc2NC(=O)Nc2ccc(OCCN3CCOCC3)c3ccccc23)cc1 [doramapimod]
Method in brief: as §1

bafetinib = compound: Cc1ccc(NC(=O)c2ccc(CN3CC[C@H](N(C)C)C3)c(C(F)(F)F)c2)cc1Nc1nccc(-c2cncnc2)n1 [bafetinib]
Method in brief: as §1

[2] = compound: Cc1cccc(CC(=O)N2CCc3c2ccc(-c2cn(C)c4ncnc(N)c24)c3F)n1
Method in brief: as §1

nilotinib = compound: Cc1cn(-c2cc(NC(=O)c3ccc(C)c(Nc4nccc(-c5cccnc5)n4)c3)cc(C(F)(F)F)c2)cn1 [nilotinib]
Method in brief: as §1

[3] = compound: Cc1nc(Nc2n[nH]c3c2CN(C(=O)N[C@H](CN(C)C)c2ccccc2)C3(C)C)c2sccc2n1
Method in brief: as §1

dasatinib = compound: Cc1nc(Nc2ncc(C(=O)Nc3c(C)cccc3Cl)s2)cc(N2CCN(CCO)CC2)n1 [dasatinib]
Method in brief: as §1

[4] = compound: Cc1ncc(-c2ccnc(Nc3ccc(S(C)(=O)=O)cc3)n2)n1C(C)C
Method in brief: as §1

[5] = compound: Cn1cc(-c2ccc3c(c2)CCN3C(=O)Cc2cccc(C(F)(F)F)c2)c2c(N)ncnc21
Method in brief: as §1

quisinostat = compound: Cn1cc(CNCC2CCN(c3ncc(C(=O)NO)cn3)CC2)c2ccccc21 [quisinostat]
Method in brief: as §1

tipifarnib = compound: Cn1cncc1[C@@](N)(c1ccc(Cl)cc1)c1ccc2c(c1)c(-c1cccc(Cl)c1)cc(=O)n2C [tipifarnib]
Method in brief: as §1

[6] = compound: NC(=O)Nc1cc(-c2cccc(F)c2)sc1C(=O)N[C@H]1CCCNC1
Method in brief: as §1

[7] = compound: NC(=O)c1cnc(N[C@@H]2CCCC[C@@H]2N)nc1Nc1cccc(-n2nccn2)c1
Method in brief: as §1

[8] = compound: NC1(c2ccc(-c3nc4ccn5c(=O)[nH]nc5c4cc3-c3ccccc3)cc2)CCC1
Method in brief: as §1

crizotinib = compound: C[C@@H](Oc1cc(-c2cnn(C3CCNCC3)c2)cnc1N)c1c(Cl)ccc(F)c1Cl [crizotinib]
Method in brief: as §1

Measured: log2 fold change

EML4 (UniProt Q9HC35)
inactive: lapatinib 0 | pictilisib 0.001 | [1] -0.065 | duvelisib 0.017 | gandotinib 0.037 | tozasertib -0.033 | doramapimod 0.011 | bafetinib -0.03 | [2] 0.025 | nilotinib -0.001 | [3] -0.001 | dasatinib -0.017 | [4] 0.016 | [5] -0.01 | quisinostat -0.055 | tipifarnib -0.005 | [6] 0.011 | [7] 0.002 | [8] 0.001

ELOB (UniProt Q15370)
inactive: lapatinib 0.03 | pictilisib 0.052 | crizotinib 0.002 | [1] 0.009 | duvelisib -0.014 | gandotinib 0.034 | tozasertib -0.014 | doramapimod -0.037 | bafetinib -0.01 | [2] 0.064 | nilotinib -0.005 | [3] -0.018 | dasatinib 0.038 | [4] 0.026 | [5] -0.06 | quisinostat 0.062 | tipifarnib 0.021 | [6] -0.072 | [7] -0.044 | [8] -0.042

EIF2B1 (UniProt Q14232)
inactive: lapatinib 0 | pictilisib -0.018 | crizotinib 0.023 | [1] 0.025 | duvelisib 0.011 | gandotinib 0.008 | tozasertib -0.002 | doramapimod -0.013 | bafetinib 0.038 | [2] -0.023 | nilotinib 0.008 | [3] -0.026 | dasatinib 0.05 | [4] 0.039 | [5] -0.021 | quisinostat 0.068 | tipifarnib 0.019 | [6] -0.017 | [7] -0.021 | [8] 0.002

EIF4B (UniProt P23588)
inactive: lapatinib 0.014 | pictilisib 0.026 | crizotinib 0.02 | [1] -0.065 | duvelisib 0.004 | gandotinib 0.074 | tozasertib -0.022 | doramapimod -0.037 | bafetinib 0.03 | [2] 0.011 | nilotinib 0.009 | [3] -0.015 | dasatinib 0.027 | [4] -0.035 | [5] 0.011 | quisinostat 0.004 | tipifarnib 0.005 | [6] -0.037 | [7] -0.013 | [8] 0.007

EMD (UniProt P50402)
inactive: lapatinib 0.015 | pictilisib -0.043 | crizotinib -0.035 | [1] 0.006 | duvelisib -0.044 | gandotinib 0.021 | tozasertib 0.012 | doramapimod 0.078 | bafetinib -0.002 | [2] 0.034 | nilotinib 0.01 | [3] -0.022 | dasatinib -0.009 | [4] -0.007 | [5] 0.003 | quisinostat -0.031 | tipifarnib 0.073 | [6] 0.052 | [7] 0.002 | [8] 0.048

ERCC8 (UniProt Q13216)
inactive: lapatinib -0.055 | pictilisib 0.065 | crizotinib -0.021 | [1] -0.083 | gandotinib 0.042 | doramapimod 0.065 | bafetinib -0.06 | [2] 0.02 | nilotinib 0.047 | [3] -0.002 | [4] -0.151 | quisinostat -0.05 | tipifarnib 0.046 | [6] -0.007 | [7] 0.084

EIF4B (UniProt F8VP89)
inactive: lapatinib -0.107 | pictilisib -0.14 | crizotinib -0.252 | duvelisib 0.066 | doramapimod -0.213 | bafetinib 0.033 | dasatinib -0.125 | [5] -0.017 | quisinostat -0.352 | [6] 0.037 | [7] -0.01

EPM2AIP1 (UniProt Q7L775)
inactive: lapatinib -0.031 | pictilisib -0.009 | crizotinib 0.025 | [1] 0.004 | duvelisib 0.013 | gandotinib -0.088 | tozasertib 0.038 | doramapimod -0.001 | bafetinib 0.082 | [2] -0.002 | nilotinib 0.035 | [3] -0.011 | dasatinib -0.011 | [4] -0.04 | [5] 0.029 | quisinostat 0.012 | tipifarnib -0.028 | [6] 0.001 | [7] 0.017 | [8] -0.008

EIF2B4 isoform 2 (UniProt Q9UI10)
inactive: lapatinib -0.041 | pictilisib 0.007 | crizotinib -0.037 | [1] -0.021 | duvelisib -0.013 | gandotinib -0.048 | tozasertib -0.01 | doramapimod -0.012 | bafetinib -0.058 | [2] 0.044 | nilotinib -0.002 | [3] 0.004 | dasatinib -0.022 | [4] 0.003 | [5] 0.011 | quisinostat 0 | tipifarnib 0.037 | [6] 0.074 | [7] -0.003 | [8] 0.002

EIF4EBP2 (UniProt Q13542)
inactive: lapatinib 0.133 | pictilisib 0.014 | crizotinib 0.103 | [1] 0.172 | duvelisib 0.027 | gandotinib -0.171 | tozasertib -0.008 | doramapimod -0.122 | bafetinib -0.06 | [2] -0.079 | nilotinib 0.009 | [3] 0.201 | dasatinib 0.034 | [4] 0.097 | [5] -0.062 | quisinostat 0.164 | tipifarnib -0.065 | [6] -0.068 | [7] 0.029 | [8] 0.181

EIF2B4 (UniProt Q9UI10)
active: tozasertib -0.314
inactive: lapatinib -0.003 | pictilisib 0.038 | crizotinib -0.057 | duvelisib -0.032 | doramapimod -0.019 | bafetinib -0.04 | nilotinib 0.053 | [3] -0.005 | dasatinib 0.014 | [4] 0.033 | [5] -0.022 | quisinostat 0.02 | tipifarnib 0.016 | [6] 0.022 | [7] 0.039 | [8] -0.021

ENTPD6 (UniProt O75354)
inactive: lapatinib -0.041 | pictilisib 0.057 | crizotinib -0.03 | [1] -0.096 | duvelisib 0.03 | gandotinib -0.05 | doramapimod 0.018 | bafetinib -0.101 | [2] -0.021 | dasatinib -0.033 | [5] 0.103 | quisinostat 0.044 | [6] 0.017 | [7] -0.032 | [8] 0.023
